Tested on: intestinal microbiome
Experiment: Gut microbiome, 16s rRNA gene-based metagenomics analysis of feces
Type: in vivo, BALB/c mice
Method: Six-week-old BALB/c female mice were used for this study (6 mice for each group). Each drug was administered orally at 30 mg/kg once daily for 7 days. Stool was collected, and 16 rRNA gene-based metagenomics analysis was performed. Corn oil was used as the vehicle. The drug-free group received corn oil only. This animal experiment was conducted with the approval of the IACUC of the Soonchunhyang University (approval number: SCH21-0011). Microbiome analysis of collected feces was carried out as previously described with some modifications. Total DNA was extracted from the stool using the QIAamp DNA stool mini kit (Qiagen, Germany) after mechanical disruption using lysing matrix B tubes (MP Biomedicals, USA). V4 region of 16S RNA gene was amplified from extracted DNA with the following primers: forward primer ([…]) and reverse primer ([…]). PCR was performed using the Kappa HiFi hot start kit (KAPA Biosystems, USA) for 16s gene amplification and library preparation. A dsDNA HS assay kit and Qubit 4 fluorimeter (Invitrogen, USA) were used for DNA quantification. After each step, quality was checked using Agilent High Sensitivity DNA Kit and Agilent Bioanalyzer 2100 (Agilent Technologies, USA). Clean-up was performed using AMPure XP beads (Beckman Coulter, UK). The metagenomic library was prepared using a Nextera XT DNA Library Prep Kit (Illumina, USA) and loaded into an iSeq-100 reagent cartridge (Illumina, USA) together with a PhiX Control library (Illumina, USA). A 300-bp paired-end sequencing was performed on an iSeq-100 platform (Illumina, USA). Sequencing data were analyzed using the EzBioCloud server (Chunlab, Korea).

[1] = after drug treatment, fraction of class
[2] = after drug treatment, fraction of phylum
[3] = gut microbiota after drug treatment, box plot data

Row | SMILES | Gut microbiota, Class Actinobacteria_c [1] | Gut microbiota, Class Bacilli [1] | Gut microbiota, Class Bacteroidia [1] | Gut microbiota, Class Betaproteobacteria [1] | Gut microbiota, Class Clostridia [1] | Gut microbiota, Class Deferribacteres_c [1] | Gut microbiota, Class ETC(<1%) [1] | Gut microbiota, Class Epsilonproteobacteria [1] | Gut microbiota, Class Gammaproteobacteria [1] | Gut microbiota, Phylum Actinobacteria [2] | Gut microbiota, Phylum Bacteroidetes [2] | Gut microbiota, Phylum Deferribacteres [2] | Gut microbiota, Phylum ETC(<1%) [2] | Gut microbiota, Phylum Firmicutes [2] | Gut microbiota, Phylum Proteobacteria [2] | Phylogenetic diversity, High [3] | Phylogenetic diversity, Low [3] | Phylogenetic diversity, Median [3] | Phylogenetic diversity, Q1(25%) [3] | Phylogenetic diversity, Q3(75%) [3] | other results
1 | NNC(=O)c1ccncc1 [INH, isoniazid, reference compound] | 0.128 | 0.184 | 0.375 | 0.000 | 0.218 | 0.000 | 0.013 | 0.066 | 0.016 | 0.130 | 0.375 | 0.000 | 0.00667 | 0.403 | 0.086 | 3.5 | 103 | 44 | 44 | 3.5 | –
2 | CO[C@H]1/C=C/O[C@@]2(C)Oc3c(C)c(O)c4c(O)c(c(/C=N/N5CCN(C)CC5)c(O)c4c3C2=O)NC(=O)/C(C)=C\C=C\[C@H](C)[C@H](O)[C@@H](C)[C@@H](O)[C@@H](C)[C@H](OC(C)=O)[C@@H]1C [RIF, rifampicin, reference compound] | – | – | – | – | – | – | – | – | – | – | – | – | – | – | – | – | – | – | – | – | Gut microbiota, Class Actinobacteria_c (mouse, in vivo): 0.000; Gut microbiota, Class Bacilli (mouse, in vivo): 0.000; Gut microbiota, Class Bacteroidia (mouse, in vivo): 0.844; Gut microbiota, Class Betaproteobacteria (mouse, in vivo): 0.000; Gut microbiota, Class Clostridia (mouse, in vivo): 0.018; Gut microbiota, Class Deferribacteres_c (mouse, in vivo): 0.000; Gut microbiota, Class ETC(<1%) (mouse, in vivo): 0.018; Gut microbiota, Class Epsilonproteobacteria (mouse, in vivo): 0.040; Gut microbiota, Class Gammaproteobacteria (mouse, in vivo): 0.079; Gut microbiota, Phylum Actinobacteria (mouse, in vivo): 0.000; Gut microbiota, Phylum Bacteroidetes (mouse, in vivo): 0.844; Gut microbiota, Phylum Deferribacteres (mouse, in vivo): 0.000; Gut microbiota, Phylum ETC(<1%) (mouse, in vivo): 0.012; Gut microbiota, Phylum Firmicutes (mouse, in vivo): 0.024; Gut microbiota, Phylum Proteobacteria (mouse, in vivo): 0.120; Phylogenetic diversity, High (mouse, in vivo): 27; Phylogenetic diversity, Low (mouse, in vivo): 64; Phylogenetic diversity, Median (mouse, in vivo): 16; Phylogenetic diversity, Q1(25%) (mouse, in vivo): 9; Phylogenetic diversity, Q3(75%) (mouse, in vivo): 13
3 | CN[C@H](CC(C)C)C(=O)N[C@H]1C(=O)N[C@@H](CC(N)=O)C(=O)N[C@H]2C(=O)N[C@H]3C(=O)N[C@H](C(=O)N[C@H](C(=O)O)c4cc(O)cc(O)c4-c4cc3ccc4O)[C@H](O)c3ccc(c(Cl)c3)Oc3cc2cc(c3O[C@@H]2O[C@H](CO)[C@@H](O)[C@H](O)[C@H]2O[C@H]2C[C@](C)(N)[C@H](O)[C@H](C)O2)Oc2ccc(cc2Cl)[C@H]1O [VAN, vancomycin] | 0.000 | 0.053 | 0.000 | 0.117 | 0.000 | 0.000 | 0.0074 | 0.000 | 0.823 | 0.000 | 0.000 | 0.000 | 0.0038 | 0.053 | 0.943 | 7 | 36 | 6 | 2 | 1 | –

Source: paper PMC9154192 (PLoS Biology, 2022)
